Measurements reported in PubChem BioAssay AID1259267 (Sanger Institute, 2017)
Assay: 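Kinase and colorectal-mutated gene knock-downs lethal to GP5D cells alone or with drugs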 (primary screen). Cell system: human GP5D colorectal cancer cells. Reagents: siRNA pool against human genes. Challenge: anchor drugs at low dose: BYL719 1 µM, cetuximab 5 µg/ml, trametinib 10 nM, or DMSO vehicle. Measured: 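Viability against non-targeting pool, replicate mean: robust z-score for knock-down alone, fraction with DMSO, synergy with BYL719 1 µM, cetuximab 5 µg/ml, trametinib 10 nM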. Scale: robust z-score, knock-down alone and viability with DMSO: higher = more viable cells; synergy score with trametinib: higher = stronger synthetic lethal synergy with drug. Rule for the call: 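Active (essential alone) if knock-down without drug gives robust z-score under -3; drug synergy does not count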. Meaning of the calls: active = essential alone; inactive = not essential.
The deposit covers 794 reagents; this is an unselected part. 9 of them (1.1%) count as active. 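Viability capped at 1; calls reflect loss of viability from knock-down alone, not synergy with drugs.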 Not all columns of the deposit are shown. Reagent sequences are not shown. Not stated in the record: the amount of reagent, the time to read-out.

gene,"robust z-score, knock-down alone",viability with DMSO (fraction of control),synergy score with trametinib,Outcome
"SRC (SRC proto-oncogene, non-receptor tyrosine kinase)",0.817,1,-0.0817,inactive
BPTF (bromodomain PHD finger transcription factor),0.163,0.861,0.0874,inactive
MAST3 (microtubule associated serine/threonine kinase 3),-1.94,0.415,-0.0602,inactive
CDK10 (cyclin dependent kinase 10),-1.69,0.469,0.0941,inactive
IKBKE (inhibitor of nuclear factor kappa B kinase subunit epsilon),-1.71,0.465,-0.116,inactive
FLT4 (fms related receptor tyrosine kinase 4),-0.264,0.771,-0.0199,inactive
STK24 (serine/threonine kinase 24),0.817,1,0.154,inactive
ERN1 (endoplasmic reticulum to nucleus signaling 1),-2.03,0.397,-0.066,inactive
MAPKAPK2 (MAPK activated protein kinase 2),0.0627,0.84,0.0167,inactive
CDC73 (cell division cycle 73),0.0139,0.83,0.0223,inactive
PRKAR2B,0.251,0.88,0.106,inactive
TAOK3 (TAO kinase 3),0.514,0.936,0.0836,inactive
TRIB2 (tribbles pseudokinase 2),0.551,0.944,0.171,inactive
SCYL3 (SCY1 like pseudokinase 3),0.175,0.864,-0.306,inactive
PIK3C2A,-3.48,0.09,-0.0847,active
MVK (mevalonate kinase),0.68,0.971,0.122,inactive
MKNK1 (MAPK interacting serine/threonine kinase 1),0.817,1,-0.166,inactive
NR4A2 (nuclear receptor subfamily 4 group A member 2),-0.889,0.638,0.0912,inactive
TRIB3 (tribbles pseudokinase 3),-1.7,0.466,-0.204,inactive
MARK3 (microtubule affinity regulating kinase 3),0.0841,0.845,0.325,inactive
WNK3 (WNK lysine deficient protein kinase 3),0.817,1,0.0642,inactive
MAP3K2 (mitogen-activated protein kinase kinase kinase 2),0.481,0.929,-0.133,inactive
BTK (Bruton tyrosine kinase),0.729,0.981,-0.0709,inactive
PNKP (polynucleotide kinase 3'-phosphatase),0.817,1,0.312,inactive
"LCK (LCK proto-oncogene, Src family tyrosine kinase)",0.817,1,0.139,inactive
VRK3 (VRK serine/threonine kinase 3),0.817,1,-0.138,inactive
MAP2K3 (mitogen-activated protein kinase kinase 3),-0.829,0.651,-0.0136,inactive
ERN2 (endoplasmic reticulum to nucleus signaling 2),0.817,1,-0.0131,inactive
HUS1 (HUS1 checkpoint clamp component),-0.249,0.774,0.26,inactive
STYK1 (STY kinase 1),-1.14,0.584,-0.225,inactive
SRGAP3 (SLIT-ROBO Rho GTPase activating protein 3),0.817,1,-0.144,inactive
TBK1 (TANK binding kinase 1),-1.48,0.513,-0.217,inactive

Laid out differently: results already given
{"gene":"WNK3 (WNK lysine deficient protein kinase 3)","robust z-score, knock-down alone":0.817,"viability with DMSO (fraction of control)":1,"synergy score with trametinib":0.0642,"Outcome":"inactive"}
{"gene":"MAP3K2 (mitogen-activated protein kinase kinase kinase 2)","robust z-score, knock-down alone":0.481,"viability with DMSO (fraction of control)":0.929,"synergy score with trametinib":-0.133,"Outcome":"inactive"}
{"gene":"BTK (Bruton tyrosine kinase)","robust z-score, knock-down alone":0.729,"viability with DMSO (fraction of control)":0.981,"synergy score with trametinib":-0.0709,"Outcome":"inactive"}
{"gene":"PNKP (polynucleotide kinase 3'-phosphatase)","robust z-score, knock-down alone":0.817,"viability with DMSO (fraction of control)":1,"synergy score with trametinib":0.312,"Outcome":"inactive"}
{"gene":"LCK (LCK proto-oncogene, Src family tyrosine kinase)","robust z-score, knock-down alone":0.817,"viability with DMSO (fraction of control)":1,"synergy score with trametinib":0.139,"Outcome":"inactive"}
{"gene":"VRK3 (VRK serine/threonine kinase 3)","robust z-score, knock-down alone":0.817,"viability with DMSO (fraction of control)":1,"synergy score with trametinib":-0.138,"Outcome":"inactive"}
{"gene":"MAP2K3 (mitogen-activated protein kinase kinase 3)","robust z-score, knock-down alone":-0.829,"viability with DMSO (fraction of control)":0.651,"synergy score with trametinib":-0.0136,"Outcome":"inactive"}

Next entries:
gene,"robust z-score, knock-down alone",viability with DMSO (fraction of control),synergy score with trametinib,Outcome
OBSCN,0.817,1,0.0692,inactive
TWF2 (twinfilin actin binding protein 2),-1.84,0.437,-0.383,inactive
TAF1L (TATA-box binding protein associated factor 1 like),0.817,1,0.0384,inactive
DGKG (diacylglycerol kinase gamma),0.817,1,-0.0157,inactive
FASTK (Fas activated serine/threonine kinase),0.817,1,0.0249,inactive
CKS1B (CDC28 protein kinase regulatory subunit 1B),0.817,1,-0.142,inactive
ACVR1 (activin A receptor type 1),0.268,0.884,0.145,inactive
PRKCZ (protein kinase C zeta),0.271,0.884,0.181,inactive
PI4KA (phosphatidylinositol 4-kinase alpha),0.0403,0.835,0.0505,inactive
PRKAG3 (protein kinase AMP-activated non-catalytic subunit gamma 3),-1.03,0.608,0.0823,inactive
ACSL6 (acyl-CoA synthetase long chain family member 6),0.817,1,-0.045,inactive
ITPKB (inositol-trisphosphate 3-kinase B),-0.927,0.63,-0.218,inactive
TSSK4 (testis specific serine kinase 4),0.0628,0.84,0.289,inactive
BMAL1 (basic helix-loop-helix ARNT like 1),-1.1,0.593,-0.0832,inactive
EFNA5 (ephrin A5),0.445,0.921,-0.163,inactive
UCK2 (uridine-cytidine kinase 2),0.185,0.866,0.0449,inactive
CDK11B (cyclin dependent kinase 11B),-2.55,0.286,-0.0504,inactive
ITK (IL2 inducible T cell kinase),0.817,1,0.0131,inactive
